Measured values: doi:10.1101/2021.05.10.443400 (bioRxiv, 2021)
Results are given in words; binding and its absence hold for the method and conditions named. For part of these data: Binding seen in cells or lysates may run through a third protein. Some binding calls cover weakened binding; strength is not graded here. For part of these data: Tags and fused reporters may be left off the sequences shown.

Amino acid sequences for entries named in this document (tags omitted).
UniProt P12004: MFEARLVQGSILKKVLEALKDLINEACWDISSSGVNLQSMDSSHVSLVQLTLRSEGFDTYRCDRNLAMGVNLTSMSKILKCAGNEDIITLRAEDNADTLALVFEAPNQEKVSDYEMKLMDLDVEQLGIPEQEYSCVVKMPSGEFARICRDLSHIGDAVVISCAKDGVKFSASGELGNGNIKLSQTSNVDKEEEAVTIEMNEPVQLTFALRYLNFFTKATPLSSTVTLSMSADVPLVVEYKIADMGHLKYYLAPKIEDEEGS
UniProt P15927: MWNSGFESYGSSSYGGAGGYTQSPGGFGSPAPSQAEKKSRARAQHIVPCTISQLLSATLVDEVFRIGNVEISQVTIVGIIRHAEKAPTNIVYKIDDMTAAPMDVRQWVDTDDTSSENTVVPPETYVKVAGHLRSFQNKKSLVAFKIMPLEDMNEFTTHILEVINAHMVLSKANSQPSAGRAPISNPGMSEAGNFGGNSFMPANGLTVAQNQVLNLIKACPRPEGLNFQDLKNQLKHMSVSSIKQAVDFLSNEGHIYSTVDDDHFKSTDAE

Tests used:
[1] = target: T1, human Orc6 (hOrc6), endogenous (human (endogenous in U2OS)) (UniProt Q9Y5N6); assay: co-IP
T1 sequence: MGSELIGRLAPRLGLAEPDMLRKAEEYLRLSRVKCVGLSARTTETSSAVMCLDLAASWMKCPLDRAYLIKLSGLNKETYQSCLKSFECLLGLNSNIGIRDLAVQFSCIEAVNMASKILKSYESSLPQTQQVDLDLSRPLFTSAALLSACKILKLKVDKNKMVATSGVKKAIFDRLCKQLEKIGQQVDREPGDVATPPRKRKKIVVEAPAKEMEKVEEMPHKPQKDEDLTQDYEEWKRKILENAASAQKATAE

[2] = target: T2, Orc6 expressed by transient transfection for SiMPull (human) (UniProt Q9Y5N6); assay: single molecule pull-down
T2 sequence: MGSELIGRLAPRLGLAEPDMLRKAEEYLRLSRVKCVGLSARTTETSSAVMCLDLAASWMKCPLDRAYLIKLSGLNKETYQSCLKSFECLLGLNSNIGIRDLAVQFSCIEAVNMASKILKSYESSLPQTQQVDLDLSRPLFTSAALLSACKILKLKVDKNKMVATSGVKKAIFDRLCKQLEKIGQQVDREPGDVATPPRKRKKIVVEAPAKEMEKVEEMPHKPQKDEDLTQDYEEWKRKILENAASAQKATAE

[3] = target: T3, Human GST-Flag-Orc6, full length (human) (UniProt Q9Y5N6); assay: pull-down
T3 sequence: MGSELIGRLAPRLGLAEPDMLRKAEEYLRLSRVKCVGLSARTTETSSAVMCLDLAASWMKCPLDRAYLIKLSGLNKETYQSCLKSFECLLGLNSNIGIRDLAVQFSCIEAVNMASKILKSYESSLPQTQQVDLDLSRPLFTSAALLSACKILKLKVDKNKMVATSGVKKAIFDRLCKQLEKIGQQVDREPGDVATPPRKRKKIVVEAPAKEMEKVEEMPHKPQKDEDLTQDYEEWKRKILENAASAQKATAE

DNA clamp PCNA, endogenous (from UniProt P12004 1-261)
binding [1]: binds

RPA32 expressed by transient transfection for SiMPull (from UniProt P15927 1-270)
binding [2]: binds

B1: Human Flag-MutLα (MLH1-PMS2 complex), purified (complex)
chain 1: MSFVAGVIRRLDETVVNRIAAGEVIQRPANAIKEMIENCLDAKSTSIQVIVKEGGLKLIQIQDNGTGIRKEDLDIVCERFTTSKLQSFEDLASISTYGFRGEALASISHVAHVTITTKTADGKCAYRASYSDGKLKAPPKPCAGNQGTQITVEDLFYNIATRRKALKNPSEEYGKILEVVGRYSVHNAGISFSVKKQGETVADVRTLPNASTVDNIRSIFGNAVSRELIEIGCEDKTLAFKMNGYISNANYSVKKCIFLLFINHRLVESTSLRKAIETVYAAYLPKNTHPFLYLSLEISPQNVDVNVHPTKHEVHFLHEESILERVQQHIESKLLGSNSSRMYFTQTLLPGLAGPSGEMVKSTTSLTSSSTSGSSDKVYAHQMVRTDSREQKLDAFLQPLSKPLSSQPQAIVTEDKTDISSGRARQQDEEMLELPAPAEVAAKNQSLEGDTTKGTSEMSEKRGPTSSNPRKRHREDSDVEMVEDDSRKEMTAACTPRRRIINLTSVLSLQEEINEQGHEVLREMLHNHSFVGCVNPQWALAQHQTKLYLLNTTKLSEELFYQILIYDFANFGVLRLSEPAPLFDLAMLALDSPESGWTEEDGPKEGLAEYIVEFLKKKAEMLADYFSLEIDEEGNLIGLPLLIDNYVPPLEGLPIFILRLATEVNWDEEKECFESLSKECAMFYSIRKQYISEESTLSGQQSEVPGSIPNSWKWTVEHIVYKALRSHILPPKHFTEDGNILQLANLPDLYKVFERC
chain 2: MERAESSSTEPAKAIKPIDRKSVHQICSGQVVLSLSTAVKELVENSLDAGATNIDLKLKDYGVDLIEVSDNGCGVEEENFEGLTLKHHTSKIQEFADLTQVETFGFRGEALSSLCALSDVTISTCHASAKVGTRLMFDHNGKIIQKTPYPRPRGTTVSVQQLFSTLPVRHKEFQRNIKKEYAKMVQVLHAYCIISAGIRVSCTNQLGQGKRQPVVCTGGSPSIKENIGSVFGQKQLQSLIPFVQLPPSDSVCEEYGLSCSDALHNLFYISGFISQCTHGVGRSSTDRQFFFINRRPCDPAKVCRLVNEVYHMYNRHQYPFVVLNISVDSECVDINVTPDKRQILLQEEKLLLAVLKTSLIGMFDSDVNKLNVSQQPLLDVEGNLIKMHAADLEKPMVEKQDQSPSLRTGEEKKDVSISRLREAFSLRHTTENKPHSPKTPEPRRSPLGQKRGMLSSSTSGAISDKGVLRPQKEAVSSSHGPSDPTDRAEVEKDSGHGSTSVDSEGFSIPDTGSHCSSEYAASSPGDRGSQEHVDSQEKAPKTDDSFSDVDCHSNQEDTGCKFRVLPQPTNLATPNTKRFKKEEILSSSDICQKLVNTQDMSASQVDVAVKINKKVVPLDFSMSSLAKRIKQLHHEAQQSEGEQNYRKFRAKICPGENQAAEDELRKEISKTMFAEMEIIGQFNLGFIITKLNEDIFIVDQHATDEKYNFEMLQQHTVLQGQRLIAPQTLNLTAVNEAVLIENLEIFRKNGFDFVIDENAPVTERAKLISLPTSKNWTFGPQDVDELIFMLSDSPGVMCRPSRVKQMFASRACRKSVMIGTALNTSEMKKLITHMGEMDHPWNCPHGRPTMRHIANLGVISQN
binding [3]: no binding
